Results from the supplement of paper PMC7661543.
± gives the standard deviation of the averaged measurements. The effect of the compound repeats well; differences between the knockouts mostly do not.

Tested on: SKBR3
Test: relative cell number vs DMSO control (72 h) (% of DMSO); higher = less growth inhibition (more cells)
Method: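 QMAP-Seq: a pool of 5 breast cancer cell lines (ZR-75-1, SKBR3, HCC-38, MDA-MB-231, BT-20), each carrying 12 doxycycline-inducible Cas9 sgRNA perturbations (11 knockouts plus non-targeting sgNT), was treated with compounds for 72 h at four 10-fold doses (10 nM-10 uM or 1 nM-1 uM range). Barcodes were amplified and sequenced, and cell number was interpolated from 293T spike-in standard curves. The result is expressed as % of the median of DMSO wells. Two biological replicates.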

[1] = sgRNA knockout: sgATF3, 1000 nM
[2] = sgRNA knockout: sgATF3, 10000 nM
[3] = sgRNA knockout: sgATF4, 1000 nM
[4] = sgRNA knockout: sgATF4, 10000 nM
[5] = sgRNA knockout: sgATF6, 1000 nM
[6] = sgRNA knockout: sgATF6, 10000 nM
[7] = sgRNA knockout: sgATG7, 1000 nM
[8] = sgRNA knockout: sgATG7, 10000 nM
[9] = sgRNA knockout: sgERN1, 1000 nM
[10] = sgRNA knockout: sgERN1, 10000 nM
[11] = sgRNA knockout: sgHSF1, 1000 nM
[12] = sgRNA knockout: sgHSF1, 10000 nM
[13] = sgRNA knockout: sgHSF2, 1000 nM
[14] = sgRNA knockout: sgHSF2, 10000 nM
[15] = sgRNA knockout: sgKEAP1, 100 nM
[16] = sgRNA knockout: sgKEAP1, 1000 nM
[17] = sgRNA knockout: sgKEAP1, 10000 nM
[18] = sgRNA knockout: sgNFE2L2, 10 nM
[19] = sgRNA knockout: sgNFE2L2, 100 nM
[20] = sgRNA knockout: sgNFE2L2, 1000 nM
[21] = sgRNA knockout: sgNFE2L2, 10000 nM
[22] = sgRNA knockout: sgSLC35F2, 10 nM
[23] = sgRNA knockout: sgSLC35F2, 100 nM
[24] = sgRNA knockout: sgSLC35F2, 1000 nM
[25] = sgRNA knockout: sgSLC35F2, 10000 nM
[26] = sgRNA knockout: sgXBP1, 1000 nM
[27] = sgRNA knockout: sgXBP1, 10000 nM

Compound `COc1cccc2c1C(=O)c1c(O)c3c(c(O)c1C2=O)C[C@@](O)(C(=O)CO)C[C@@H]3O[C@H]1C[C@H](N)[C@H](O)[C@H](C)O1` [Doxorubicin] has a relative cell number (sgRNA knockout: sgATF3, 10 nM) of 83.9 ± 13, a relative cell number (sgRNA knockout: sgATF3, 100 nM) of 33.1 ± 15 and a relative cell number [1] of 12 ± 4.3. It also gave a relative cell number [2] of 8.04 ± 2.7, a relative cell number (sgRNA knockout: sgATF4, 10 nM) of 84.8 ± 3.3 and a relative cell number (sgRNA knockout: sgATF4, 100 nM) of 34.5 ± 7.4. For the same compound, the relative cell number [3] was 17.1 ± 2, the relative cell number [4] was 7.08 ± 0.34 and the relative cell number (sgRNA knockout: sgATF6, 10 nM) was 86.2 ± 2.4. The relative cell number (sgRNA knockout: sgATF6, 100 nM) was 42.1 ± 3.6, the relative cell number [5] was 10.9 ± 5.8 and the relative cell number [6] was 7.04 ± 0.87. The relative cell number (sgRNA knockout: sgATG7, 10 nM) was 78.6 ± 3.2, the relative cell number (sgRNA knockout: sgATG7, 100 nM) was 42.8 ± 10 and the relative cell number [7] was 10.7 ± 2.3. For the same compound, the relative cell number [8] was 10.4 ± 1.6, the relative cell number (sgRNA knockout: sgERN1, 10 nM) was 78.2 ± 2.7 and the relative cell number (sgRNA knockout: sgERN1, 100 nM) was 41.9 ± 2.1. The relative cell number [9] was 15.6 ± 7.8, the relative cell number [10] was 7.02 ± 5 and the relative cell number (sgRNA knockout: sgHSF1, 10 nM) was 88.8 ± 21. It also gave a relative cell number (sgRNA knockout: sgHSF1, 100 nM) of 34.5 ± 5.9, a relative cell number [11] of 13.8 ± 5 and a relative cell number [12] of 5.37 ± 3.2. For the same compound, the relative cell number (sgRNA knockout: sgHSF2, 10 nM) was 104 ± 23, the relative cell number (sgRNA knockout: sgHSF2, 100 nM) was 40.6 ± 12 and the relative cell number [13] was 20.9 ± 9. It also gave a relative cell number [14] of 9.64 ± 1.9, a relative cell number (sgRNA knockout: sgKEAP1, 10 nM) of 89 ± 10 and a relative cell number [15] of 31.6 ± 2.8. For the same compound, the relative cell number [16] was 9.39 ± 2.3, the relative cell number [17] was 6.93 ± 2.8 and the relative cell number [18] was 86.5 ± 0.62. The relative cell number [19] was 33.3 ± 1.4, the relative cell number [20] was 14.3 ± 5.8 and the relative cell number [21] was 8.37 ± 1.2. For the same compound, the relative cell number [22] was 80.2 ± 22, the relative cell number [23] was 32.3 ± 1.2 and the relative cell number [24] was 10.3 ± 4.6. The relative cell number [25] was 10.2 ± 7.2, the relative cell number (sgRNA knockout: sgXBP1, 10 nM) was 82.8 ± 7.1 and the relative cell number (sgRNA knockout: sgXBP1, 100 nM) was 45.9 ± 1.4. For the same compound, the relative cell number [26] was 11.9 ± 1.6 and the relative cell number [27] was 8 ± 1.3.
For `C[C@]1(c2nc3c(C(N)=O)cccc3[nH]2)CCCN1` [Veliparib], the relative cell number (sgRNA knockout: sgATF3, 10 nM) was 108 ± 50, the relative cell number (sgRNA knockout: sgATF3, 100 nM) was 99.7 ± 35 and the relative cell number [1] was 95.3 ± 30. It also gave a relative cell number [2] of 88.2 ± 36, a relative cell number (sgRNA knockout: sgATF4, 10 nM) of 95.8 ± 6.7 and a relative cell number (sgRNA knockout: sgATF4, 100 nM) of 105 ± 14. For the same compound, the relative cell number [3] was 88.1 ± 1.2, the relative cell number [4] was 75 ± 4.4 and the relative cell number (sgRNA knockout: sgATF6, 10 nM) was 73.7 ± 5.8. The relative cell number (sgRNA knockout: sgATF6, 100 nM) was 110 ± 29, the relative cell number [5] was 95 ± 12 and the relative cell number [6] was 80.1 ± 20. For the same compound, the relative cell number (sgRNA knockout: sgATG7, 10 nM) was 118 ± 64, the relative cell number (sgRNA knockout: sgATG7, 100 nM) was 110 ± 1.5 and the relative cell number [7] was 102 ± 25. The relative cell number [8] was 92.3 ± 4.7, the relative cell number (sgRNA knockout: sgERN1, 10 nM) was 98 ± 50 and the relative cell number (sgRNA knockout: sgERN1, 100 nM) was 110 ± 1.4. It also gave a relative cell number [9] of 102 ± 10, a relative cell number [10] of 82.3 ± 11 and a relative cell number (sgRNA knockout: sgHSF1, 10 nM) of 85.6 ± 30. For the same compound, the relative cell number (sgRNA knockout: sgHSF1, 100 nM) was 111 ± 34, the relative cell number [11] was 83.3 ± 22 and the relative cell number [12] was 72 ± 9.5. For the same compound, the relative cell number (sgRNA knockout: sgHSF2, 10 nM) was 97.6 ± 30, the relative cell number (sgRNA knockout: sgHSF2, 100 nM) was 85.6 ± 10 and the relative cell number [13] was 104 ± 1.8. It also gave a relative cell number [14] of 65.2 ± 2.6, a relative cell number (sgRNA knockout: sgKEAP1, 10 nM) of 114 ± 26 and a relative cell number [15] of 96.1 ± 4.1. For the same compound, the relative cell number [16] was 84.9 ± 22, the relative cell number [17] was 69.2 ± 17 and the relative cell number [18] was 100 ± 46. The relative cell number [19] was 94.9 ± 3, the relative cell number [20] was 84.2 ± 8.2 and the relative cell number [21] was 79.3 ± 17. The relative cell number [22] was 111 ± 24, the relative cell number [23] was 99.5 ± 9.9 and the relative cell number [24] was 83.4 ± 24. For the same compound, the relative cell number [25] was 72.4 ± 6.7, the relative cell number (sgRNA knockout: sgXBP1, 10 nM) was 103 ± 48 and the relative cell number (sgRNA knockout: sgXBP1, 100 nM) was 138 ± 31. The relative cell number [26] was 90.8 ± 30 and the relative cell number [27] was 82.8 ± 6.6.
Compound `C[C@@H](Oc1cc(-n2cnc3ccc(CN4CCN(C)CC4)cc32)sc1C(N)=O)c1ccccc1C(F)(F)F` has a relative cell number (sgRNA knockout: sgATF3, 10 nM) of 17.7 ± 9.7, a relative cell number (sgRNA knockout: sgATF3, 100 nM) of 11.8 ± 0.6 and a relative cell number [1] of 12.6 ± 2.6. The relative cell number [2] was 32.1 ± 1.7, the relative cell number (sgRNA knockout: sgATF4, 10 nM) was 16.8 ± 5.5 and the relative cell number (sgRNA knockout: sgATF4, 100 nM) was 8 ± 1.1. For the same compound, the relative cell number [3] was 23.7 ± 5.2, the relative cell number [4] was 26.1 ± 8.1 and the relative cell number (sgRNA knockout: sgATF6, 10 nM) was 11.2 ± 4.2. The relative cell number (sgRNA knockout: sgATF6, 100 nM) was 12.9 ± 3.6, the relative cell number [5] was 20.7 ± 2.5 and the relative cell number [6] was 29.5 ± 0.86. It also gave a relative cell number (sgRNA knockout: sgATG7, 10 nM) of 16 ± 6.5, a relative cell number (sgRNA knockout: sgATG7, 100 nM) of 10.7 ± 4.9 and a relative cell number [7] of 20.1 ± 7.9. For the same compound, the relative cell number [8] was 19 ± 0.59, the relative cell number (sgRNA knockout: sgERN1, 10 nM) was 18.5 ± 4.9 and the relative cell number (sgRNA knockout: sgERN1, 100 nM) was 13.9 ± 2. For the same compound, the relative cell number [9] was 9.72 ± 1.6, the relative cell number [10] was 33.5 ± 3.5 and the relative cell number (sgRNA knockout: sgHSF1, 10 nM) was 17.3 ± 4.4. It also gave a relative cell number (sgRNA knockout: sgHSF1, 100 nM) of 6.08 ± 2.2, a relative cell number [11] of 23.7 ± 5.4 and a relative cell number [12] of 20.6 ± 1.4. For the same compound, the relative cell number (sgRNA knockout: sgHSF2, 10 nM) was 22.8 ± 3.5, the relative cell number (sgRNA knockout: sgHSF2, 100 nM) was 15.3 ± 8 and the relative cell number [13] was 26.7 ± 4.9. The relative cell number [14] was 30.4 ± 2.1, the relative cell number (sgRNA knockout: sgKEAP1, 10 nM) was 13.2 ± 3.4 and the relative cell number [15] was 8.6 ± 2.9. For the same compound, the relative cell number [16] was 14.9 ± 5, the relative cell number [17] was 22.5 ± 1.2 and the relative cell number [18] was 16.7 ± 7. It also gave a relative cell number [19] of 7.16 ± 1.4, a relative cell number [20] of 20.1 ± 2.1 and a relative cell number [21] of 28.6 ± 4.3. It also gave a relative cell number [22] of 13.1 ± 8.3, a relative cell number [23] of 12.3 ± 3.8 and a relative cell number [24] of 16.8 ± 4.9. It also gave a relative cell number [25] of 26.3 ± 4.7, a relative cell number (sgRNA knockout: sgXBP1, 10 nM) of 23.2 ± 1.9 and a relative cell number (sgRNA knockout: sgXBP1, 100 nM) of 12 ± 3.2. For the same compound, the relative cell number [26] was 17.2 ± 6.1 and the relative cell number [27] was 22.2 ± 7.9.
